From US12070445B2, “System and assay for monitoring production/release of membrane-lytic toxins in bacteria and compounds for modulating same” (priority 2021, dated 2024)
Some of these results come from one statement about several compounds together.

Tested on: agr
Experiment: agr YFP transcriptional reporter assay (S. aureus AH1677 with pDB59)
Type: cell-based
Conditions: fold more potent than 6
Protocol: Bacterial strains and culture. All bacteria were grown at 37° C. with 200 rpm shaking unless otherwise specified. S. aureus and P. aeruginosa were grown in BHI medium and LB medium, respectively. S. aureus AH1677 (with an agr-YFP reporter plasmid) and P. aeruginosa PAO1-PGSC (with a plasI-LVAgfp reporter plasmid) were used as QS transcriptional reporters and grown with 10 μg/mL chloramphenicol and 300 μg/mL carbenicillin, respectively. All other strains were grown without supplemental antibiotic. S. aureus RN6390b and P. aeruginosa PAO1-PGSC were used as WT strains in vesicle lysis experiments, while S. aureus RN9222 and P. aeruginosa PAO-JG35 were used as QS mutants. […]
High-throughput screening and follow-up analysis protocols. […] These cultures were diluted 1:500 (v/v) in fresh BHI medium, at which point vesicle solutions were added to a final concentration of 1 mM phospholipid (as determined by ^31P NMR analyses). […] Plates were incubated statically for ˜24 hr at 37° C., at which point fluorescence (excitation 483, emission 530) and OD600 (absorbance at 600 nm) measurements were made using a CLARIOstarR Plus microtiter plate reader (BMG Labtech) running MARS data analysis software. […] Fluorescence (excitation 510, emission 544) and OD600 measurements were acquired with a PerkinElmer EnVision microtiter plate reader running Envision Manager software. […]

Compound	potency relative to compound 6 in the reporter assay
Cc1nn2c(C(C)C)cc(C(=O)O)nc2c1-c1ccccc1 [Compound 10, 7-isopropyl-2-methyl-3-phenylpyrazolo[1,5-a]pyrimidine-5-carboxylic acid]	5-10 times
O=C(Nc1nc2c(s1)CN(C(=O)Nc1cccc(Cl)c1)CC2)c1ccsc1 [Compound 11, N-(3-chlorophenyl)-2-(thiophene-3-carboxamido)-6,7-dihydrothiazolo[5,4-c]pyridine-5(4H)-carboxamide]	5-10 times
